Measurements from the supplement of paper PMC8858631.
Where a name gives a salt, the structure may show the parent alone. Some of the results follow. Rule as the data show it: active = 0.5 or less and inactive = the rest. Many values rest on one well or one pass, so single values are uncertain.

test system: SK-MEL-28; test: EEF2K protein level normalised to actin (western blot) after treatment (ratio (EEF2K/Actin)); higher = more EEF2K protein remaining (less EEF2K suppression); details: 5 µM; 24 h

Q: With `CC1(C)CCC(C)(C)c2cc(NC(=O)c3ccc(C(=O)O)cc3)ccc21` [Tamibarotene] as the compound, how does the “EEF2K protein level normalised to actin” value read?
A: inactive: 1.19

Q: Which “EEF2K protein level normalised to actin” value does the source give for `CC[C@H](c1ccc(O)cc1)[C@@H](CC)c1ccc(O)cc1` [Hexestrol] here?
A: inactive: 2.38

Q: Which “EEF2K protein level normalised to actin” value does the source give for `COc1ccc(S(=O)(=O)N(C(C)=O)c2ccccc2/C=C/c2cc[n+]([O-])cc2)cc1` here?
A: active: 0.3

Q: `CC1=NN(c2ccc(C)c(C)c2)C(=O)/C1=N\Nc1cccc(-c2cccc(C(=O)O)c2)c1O` [Eltrombopag Olamine] was tested. Which “EEF2K protein level normalised to actin” value did it give?
A: inactive: 2.29

Q: How did the “EEF2K protein level normalised to actin” value turn out when `CC(=O)O[C@H]1C(=O)[C@@]2(C)[C@H]([C@H](OC(=O)c3ccccc3)[C@]3(O)C[C@H](OC(=O)[C@H](O)[C@@H](NC(=O)c4ccccc4)c4ccccc4)C(C)=C1C3(C)C)[C@]1(OC(C)=O)CO[C@@H]1C[C@@H]2O` [Paclitaxel] was run?
A: inactive: 0.89

Q: How did the “EEF2K protein level normalised to actin” value turn out when `COc1cccc2c1C(=O)c1c(O)c3c(c(O)c1C2=O)C[C@@](O)(C(=O)CO)C[C@@H]3O[C@H]1C[C@H](N)[C@@H](O)[C@H](C)O1` [Epirubicin HCl] was run?
A: inactive: 0.83

Q: For `NC(=S)N/N=C/c1ncccc1N` [Triapine], which “EEF2K protein level normalised to actin” value is on record?
A: inactive: 0.9

Q: `NC(=O)NO` [Hydroxyurea] was tested. Which “EEF2K protein level normalised to actin” value did it give?
A: inactive: 0.64

Q: For `CCC1=C[C@@H]2CN(C1)Cc1c([nH]c3ccccc13)[C@@](C(=O)OC)(c1cc3c(cc1OC)N(C)[C@H]1[C@@](O)(C(=O)OC)[C@H](OC(C)=O)[C@]4(CC)C=CCN5CC[C@]31[C@@H]54)C2` [Vinorelbine Tartrate], which “EEF2K protein level normalised to actin” value is on record?
A: inactive: 0.62

Q: With `Nc1nnc(-c2cccc(Cl)c2Cl)c(N)n1` [Lamotrigine] as the compound, how does the “EEF2K protein level normalised to actin” value read?
A: inactive: 0.56

Q: How did the “EEF2K protein level normalised to actin” value turn out when `N=C1CCCN1Cc1[nH]c(=O)[nH]c(=O)c1Cl.O=c1[nH]c(=O)n([C@H]2C[C@H](O)[C@@H](CO)O2)cc1C(F)(F)F` was run?
A: inactive: 1.27

Q: Which “EEF2K protein level normalised to actin” value does the source give for `O=C(O)C(=O)O.[NH-][C@@H]1CCCC[C@H]1[NH-].[Pt+2]` [Oxaliplatin] here?
A: inactive: 1.84

Q: For `CN(C(=O)c1c(O)c2ccccc2n(C)c1=O)c1ccccc1` [Roquinimex], which “EEF2K protein level normalised to actin” value is on record?
A: inactive: 1.72

Q: Which “EEF2K protein level normalised to actin” value does the source give for `CC1=C(CC(=O)O)c2cc(F)ccc2/C1=C\c1ccc([S+](C)[O-])cc1` (stereo unspecified) [Sulindac] here?
A: inactive: 0.83

Q: Which “EEF2K protein level normalised to actin” value does the source give for `O=C(/C=C/c1cccc(S(=O)(=O)Nc2ccccc2)c1)NO` [Belinostat (PXD101)] here?
A: active: 0.35

Q: For `CN(C)/N=N/c1[nH]cnc1C(N)=O` [Dacarbazine], which “EEF2K protein level normalised to actin” value is on record?
A: inactive: 0.73

Q: How did the “EEF2K protein level normalised to actin” value turn out when `CNC(=O)c1ccc(N2C(=S)N(c3ccc(C#N)c(C(F)(F)F)c3)C(=O)C2(C)C)cc1F` [Enzalutamide (MDV3100)] was run?
A: inactive: 1.56

Q: Which “EEF2K protein level normalised to actin” value does the source give for `CCCS(=O)(=O)Nc1ccc(F)c(C(=O)c2c[nH]c3ncc(-c4ccc(Cl)cc4)cc23)c1F` [Vemurafenib (PLX4032, RG7204)] here?
A: inactive: 1.24

Q: How did the “EEF2K protein level normalised to actin” value turn out when `CC(C)(C)c1nc(-c2cccc(NS(=O)(=O)c3c(F)cccc3F)c2F)c(-c2ccnc(N)n2)s1` [Dabrafenib Mesylate] was run?
A: inactive: 1.28

Q: For `CC(=O)O[C@@]12CO[C@@H]1C[C@H](O)[C@@]1(C)C(=O)[C@H](O)C3=C(C)[C@@H](OC(=O)[C@H](O)[C@@H](NC(=O)OC(C)(C)C)c4ccccc4)C[C@@](O)([C@@H](OC(=O)c4ccccc4)[C@H]21)C3(C)C` [Docetaxel Trihydrate], which “EEF2K protein level normalised to actin” value is on record?
A: active: 0.16

Q: Which “EEF2K protein level normalised to actin” value does the source give for `CC(C)C[C@H](NC(=O)[C@H](Cc1ccccc1)NC(=O)c1cnccn1)B(O)O` [Bortezomib (PS-341)] here?
A: active: 0.07

Q: How did the “EEF2K protein level normalised to actin” value turn out when `CCc1cc2c(cc1N1CCC(N3CCOCC3)CC1)C(C)(C)c1[nH]c3cc(C#N)ccc3c1C2=O` was run?
A: inactive: 0.83

Q: For `S=P(N1CC1)(N1CC1)N1CC1` [Thiotepa], which “EEF2K protein level normalised to actin” value is on record?
A: inactive: 1.32

Q: `CC(C)(C)c1nc(-c2cccc(NS(=O)(=O)c3c(F)cccc3F)c2F)c(-c2ccnc(N)n2)s1` was tested. Which “EEF2K protein level normalised to actin” value did it give?
A: inactive: 1.06

Q: How did the “EEF2K protein level normalised to actin” value turn out when `COc1cc2nccc(Oc3ccc(NC(=O)NC4CC4)c(Cl)c3)c2cc1C(N)=O` [Lenvatinib (E7080)] was run?
A: inactive: 1.94

Q: How did the “EEF2K protein level normalised to actin” value turn out when `C[C@]12CC[C@@H]3c4ccc(O)cc4C[C@@H](CCCCCCCCC[S+]([O-])CCCC(F)(F)C(F)(F)F)[C@H]3[C@@H]1CC[C@@H]2O` (stereo partly specified) [Fulvestrant] was run?
A: inactive: 3.35

Q: Which “EEF2K protein level normalised to actin” value does the source give for `C=C1c2cccc(O)c2C(=O)C2=C(O)[C@]3(O)C(=O)C(C(N)=O)=C(O)[C@@H](N(C)C)[C@@H]3[C@@H](O)[C@H]12` [Methacycline HCl] here?
A: inactive: 0.62

Q: With `CC[C@@]1(O)C(=O)OCc2c1cc1n(c2=O)Cc2cc3cc(O)ccc3nc2-1` [(S)-10-Hydroxycamptothecin] as the compound, how does the “EEF2K protein level normalised to actin” value read?
A: inactive: 0.54

Q: Which “EEF2K protein level normalised to actin” value does the source give for `CN1C(=O)/C(=C2/C(=O)Nc3ccccc32)c2ccccc21` [Meisoindigo] here?
A: inactive: 0.73

Q: `CC[C@@H]1/C=C(\C)C[C@H](C)C[C@H](OC)[C@H]2O[C@@](O)(C(=O)C(=O)N3CCCC[C@H]3C(=O)O[C@H](/C(C)=C/[C@@H]3CC[C@H](Cl)[C@H](OC)C3)[C@H](C)[C@@H](O)CC1=O)[C@H](C)C[C@@H]2OC` [Pimecrolimus] was tested. Which “EEF2K protein level normalised to actin” value did it give?
A: inactive: 0.84

Q: With `COc1ccc2cc1Oc1ccc(cc1)C[C@H]1c3cc(c(OC)cc3CCN1C)Oc1c(O)c(OC)cc3c1[C@H](C2)N(C)CC3` [(+)-Fangchinoline] as the compound, how does the “EEF2K protein level normalised to actin” value read?
A: inactive: 0.71

Q: Which “EEF2K protein level normalised to actin” value does the source give for `C#Cc1cccc(Nc2ncnc3cc(OCCOC)c(OCCOC)cc23)c1` [Erlotinib] here?
A: active: 0.48

Q: For `COc1ccc2cc1Oc1ccc(cc1)C[C@H]1c3cc(c(OC)cc3CCN1C)Oc1c(O)c(OC)cc3c1[C@H](C2)N(C)CC3` [Fangchinoline], which “EEF2K protein level normalised to actin” value is on record?
A: inactive: 0.79

Q: `Cc1cnc(Nc2ccc(OCCN3CCCC3)cc2)nc1Nc1cccc(S(=O)(=O)NC(C)(C)C)c1` was tested. Which “EEF2K protein level normalised to actin” value did it give?
A: inactive: 4.37

Q: Which “EEF2K protein level normalised to actin” value does the source give for `c1cc(CN2CCCNCCNCCCNCC2)ccc1CN1CCCNCCNCCCNCC1` [Plerixafor 8HCl (AMD3100 8HCl)] here?
A: inactive: 0.64

Q: How did the “EEF2K protein level normalised to actin” value turn out when `Nc1ccn([C@@H]2O[C@H](CO)[C@@H](O)C2(F)F)c(=O)n1` [Gemcitabine] was run?
A: active: 0.17
